Our source for the log2 fold change values is the supplement of paper PMC12819154, “High-throughput peptide-centric local stability assay extends protein–ligand identification to membrane proteins, tissues and bacteria” (Nature Structural & Molecular Biology, 2025).

Sequences of proteins named here, by UniProt entry; tags and fusion partners are left off. A change or cut given only in a name is not applied to a line headed by its entry.
UniProt Q53GL7: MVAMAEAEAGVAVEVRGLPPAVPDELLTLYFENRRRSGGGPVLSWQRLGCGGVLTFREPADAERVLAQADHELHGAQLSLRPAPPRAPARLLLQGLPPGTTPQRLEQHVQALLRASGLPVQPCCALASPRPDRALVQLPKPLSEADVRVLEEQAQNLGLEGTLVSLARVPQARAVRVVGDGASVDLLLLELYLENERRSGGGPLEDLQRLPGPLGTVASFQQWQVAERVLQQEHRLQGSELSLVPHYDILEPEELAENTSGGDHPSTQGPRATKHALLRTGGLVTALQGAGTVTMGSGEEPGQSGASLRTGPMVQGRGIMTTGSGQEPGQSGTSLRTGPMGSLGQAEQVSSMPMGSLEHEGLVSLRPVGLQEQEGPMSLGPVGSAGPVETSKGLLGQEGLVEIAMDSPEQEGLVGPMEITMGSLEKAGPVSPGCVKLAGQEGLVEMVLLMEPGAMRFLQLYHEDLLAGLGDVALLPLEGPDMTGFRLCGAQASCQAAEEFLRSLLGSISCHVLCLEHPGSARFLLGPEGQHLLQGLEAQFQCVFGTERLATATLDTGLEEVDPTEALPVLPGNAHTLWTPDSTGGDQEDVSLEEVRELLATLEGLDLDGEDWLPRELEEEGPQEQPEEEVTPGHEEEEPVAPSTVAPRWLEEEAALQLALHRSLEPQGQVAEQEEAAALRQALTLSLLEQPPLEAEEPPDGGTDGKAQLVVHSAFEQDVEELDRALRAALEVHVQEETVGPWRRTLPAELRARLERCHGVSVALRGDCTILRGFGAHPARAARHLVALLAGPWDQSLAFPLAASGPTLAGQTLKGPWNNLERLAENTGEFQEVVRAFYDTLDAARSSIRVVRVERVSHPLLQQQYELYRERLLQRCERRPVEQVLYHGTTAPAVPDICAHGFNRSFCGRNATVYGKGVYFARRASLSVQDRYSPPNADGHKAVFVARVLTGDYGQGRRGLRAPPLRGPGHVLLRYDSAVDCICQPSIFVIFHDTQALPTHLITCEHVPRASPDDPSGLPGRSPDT
UniProt Q5VWN6: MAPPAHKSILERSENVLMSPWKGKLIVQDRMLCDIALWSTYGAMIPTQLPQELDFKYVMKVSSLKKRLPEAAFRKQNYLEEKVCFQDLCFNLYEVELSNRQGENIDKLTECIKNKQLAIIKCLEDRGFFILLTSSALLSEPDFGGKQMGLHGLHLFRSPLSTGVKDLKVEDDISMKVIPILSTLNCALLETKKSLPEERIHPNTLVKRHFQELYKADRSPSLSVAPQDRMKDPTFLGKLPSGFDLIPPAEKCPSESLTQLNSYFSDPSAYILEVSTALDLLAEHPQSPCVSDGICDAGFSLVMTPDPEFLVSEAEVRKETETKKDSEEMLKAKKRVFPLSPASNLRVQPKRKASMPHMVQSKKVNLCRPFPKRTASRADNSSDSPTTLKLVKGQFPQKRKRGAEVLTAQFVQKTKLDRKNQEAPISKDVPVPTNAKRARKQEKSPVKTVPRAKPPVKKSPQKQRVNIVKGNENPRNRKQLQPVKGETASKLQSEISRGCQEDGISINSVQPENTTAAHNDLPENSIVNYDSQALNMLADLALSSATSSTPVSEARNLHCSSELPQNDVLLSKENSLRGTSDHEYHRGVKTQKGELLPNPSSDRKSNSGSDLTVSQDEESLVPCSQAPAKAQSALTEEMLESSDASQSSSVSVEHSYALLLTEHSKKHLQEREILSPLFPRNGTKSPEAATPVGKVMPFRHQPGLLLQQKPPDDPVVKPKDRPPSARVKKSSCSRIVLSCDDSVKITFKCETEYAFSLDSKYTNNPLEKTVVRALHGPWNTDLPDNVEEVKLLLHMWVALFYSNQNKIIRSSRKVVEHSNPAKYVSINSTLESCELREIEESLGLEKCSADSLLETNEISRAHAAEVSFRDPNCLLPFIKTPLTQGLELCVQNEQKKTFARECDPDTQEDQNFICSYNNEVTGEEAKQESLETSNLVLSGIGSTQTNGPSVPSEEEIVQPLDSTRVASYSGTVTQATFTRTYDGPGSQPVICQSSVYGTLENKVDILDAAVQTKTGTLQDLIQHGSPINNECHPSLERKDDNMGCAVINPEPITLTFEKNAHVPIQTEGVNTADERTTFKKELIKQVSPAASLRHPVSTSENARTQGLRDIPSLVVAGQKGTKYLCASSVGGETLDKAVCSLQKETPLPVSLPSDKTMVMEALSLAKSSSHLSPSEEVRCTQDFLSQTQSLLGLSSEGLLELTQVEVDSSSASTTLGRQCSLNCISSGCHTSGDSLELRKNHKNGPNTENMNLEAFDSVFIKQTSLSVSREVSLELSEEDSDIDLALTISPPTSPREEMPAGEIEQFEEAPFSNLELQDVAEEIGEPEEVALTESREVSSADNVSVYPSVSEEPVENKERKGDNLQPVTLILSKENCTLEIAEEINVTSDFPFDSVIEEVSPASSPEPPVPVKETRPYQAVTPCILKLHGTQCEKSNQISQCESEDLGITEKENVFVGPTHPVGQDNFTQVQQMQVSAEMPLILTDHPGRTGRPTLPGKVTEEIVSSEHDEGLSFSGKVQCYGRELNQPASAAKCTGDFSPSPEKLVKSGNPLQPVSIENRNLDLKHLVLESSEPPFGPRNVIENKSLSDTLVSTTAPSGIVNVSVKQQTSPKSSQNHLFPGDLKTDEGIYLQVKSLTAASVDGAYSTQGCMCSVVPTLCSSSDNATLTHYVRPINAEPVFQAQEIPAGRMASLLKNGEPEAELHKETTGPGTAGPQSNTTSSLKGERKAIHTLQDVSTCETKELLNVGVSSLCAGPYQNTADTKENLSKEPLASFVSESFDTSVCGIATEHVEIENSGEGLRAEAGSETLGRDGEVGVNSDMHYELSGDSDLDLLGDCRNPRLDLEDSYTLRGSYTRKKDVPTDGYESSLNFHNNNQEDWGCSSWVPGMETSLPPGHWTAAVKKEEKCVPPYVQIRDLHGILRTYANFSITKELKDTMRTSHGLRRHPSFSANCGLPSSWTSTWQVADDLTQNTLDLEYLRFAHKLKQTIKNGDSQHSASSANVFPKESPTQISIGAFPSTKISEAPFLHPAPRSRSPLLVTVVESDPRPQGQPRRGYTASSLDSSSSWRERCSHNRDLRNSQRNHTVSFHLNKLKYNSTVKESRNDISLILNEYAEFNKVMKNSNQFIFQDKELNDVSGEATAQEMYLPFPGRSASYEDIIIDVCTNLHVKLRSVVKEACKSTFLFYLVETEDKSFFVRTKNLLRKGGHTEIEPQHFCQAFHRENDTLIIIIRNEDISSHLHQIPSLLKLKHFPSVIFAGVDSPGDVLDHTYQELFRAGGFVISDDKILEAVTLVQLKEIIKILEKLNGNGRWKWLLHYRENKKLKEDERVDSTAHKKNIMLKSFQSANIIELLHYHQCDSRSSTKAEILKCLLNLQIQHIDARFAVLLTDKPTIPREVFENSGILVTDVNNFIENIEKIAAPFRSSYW
UniProt Q4VC05, whole entry: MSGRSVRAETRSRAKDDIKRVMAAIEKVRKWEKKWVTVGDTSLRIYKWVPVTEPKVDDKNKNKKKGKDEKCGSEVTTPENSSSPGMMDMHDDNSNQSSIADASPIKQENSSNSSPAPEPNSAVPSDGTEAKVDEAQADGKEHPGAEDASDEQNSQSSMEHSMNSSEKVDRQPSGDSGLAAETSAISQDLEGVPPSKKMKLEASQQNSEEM
UniProt Q5TC82: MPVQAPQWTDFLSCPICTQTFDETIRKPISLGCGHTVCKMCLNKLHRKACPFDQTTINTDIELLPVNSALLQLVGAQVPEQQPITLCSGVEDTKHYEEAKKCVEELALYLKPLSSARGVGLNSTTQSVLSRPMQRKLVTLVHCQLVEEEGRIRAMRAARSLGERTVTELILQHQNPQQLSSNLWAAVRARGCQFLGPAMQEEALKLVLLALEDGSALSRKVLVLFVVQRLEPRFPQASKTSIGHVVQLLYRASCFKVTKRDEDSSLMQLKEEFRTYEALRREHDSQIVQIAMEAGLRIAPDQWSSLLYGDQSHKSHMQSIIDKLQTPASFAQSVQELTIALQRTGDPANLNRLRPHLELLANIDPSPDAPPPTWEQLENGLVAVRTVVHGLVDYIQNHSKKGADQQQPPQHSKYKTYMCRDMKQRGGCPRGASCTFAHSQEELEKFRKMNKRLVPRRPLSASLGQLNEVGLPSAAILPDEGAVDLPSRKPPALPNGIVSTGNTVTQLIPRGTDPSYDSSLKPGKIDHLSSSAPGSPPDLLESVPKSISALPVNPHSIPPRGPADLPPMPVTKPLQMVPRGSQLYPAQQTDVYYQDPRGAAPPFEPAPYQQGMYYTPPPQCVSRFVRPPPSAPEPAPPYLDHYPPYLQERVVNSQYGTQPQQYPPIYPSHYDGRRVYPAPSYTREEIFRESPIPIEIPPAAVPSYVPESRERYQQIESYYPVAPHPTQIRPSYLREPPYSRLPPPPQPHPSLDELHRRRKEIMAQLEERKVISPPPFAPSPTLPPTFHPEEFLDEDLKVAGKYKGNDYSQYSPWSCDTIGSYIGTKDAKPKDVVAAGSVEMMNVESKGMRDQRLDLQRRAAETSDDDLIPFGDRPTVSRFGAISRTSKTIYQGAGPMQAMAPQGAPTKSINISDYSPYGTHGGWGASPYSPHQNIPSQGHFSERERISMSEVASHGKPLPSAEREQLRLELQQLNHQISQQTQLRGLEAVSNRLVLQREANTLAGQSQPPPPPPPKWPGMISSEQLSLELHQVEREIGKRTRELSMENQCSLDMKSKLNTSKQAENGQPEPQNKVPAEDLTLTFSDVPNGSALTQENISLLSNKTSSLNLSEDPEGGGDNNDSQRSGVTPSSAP
UniProt Q5QJE6: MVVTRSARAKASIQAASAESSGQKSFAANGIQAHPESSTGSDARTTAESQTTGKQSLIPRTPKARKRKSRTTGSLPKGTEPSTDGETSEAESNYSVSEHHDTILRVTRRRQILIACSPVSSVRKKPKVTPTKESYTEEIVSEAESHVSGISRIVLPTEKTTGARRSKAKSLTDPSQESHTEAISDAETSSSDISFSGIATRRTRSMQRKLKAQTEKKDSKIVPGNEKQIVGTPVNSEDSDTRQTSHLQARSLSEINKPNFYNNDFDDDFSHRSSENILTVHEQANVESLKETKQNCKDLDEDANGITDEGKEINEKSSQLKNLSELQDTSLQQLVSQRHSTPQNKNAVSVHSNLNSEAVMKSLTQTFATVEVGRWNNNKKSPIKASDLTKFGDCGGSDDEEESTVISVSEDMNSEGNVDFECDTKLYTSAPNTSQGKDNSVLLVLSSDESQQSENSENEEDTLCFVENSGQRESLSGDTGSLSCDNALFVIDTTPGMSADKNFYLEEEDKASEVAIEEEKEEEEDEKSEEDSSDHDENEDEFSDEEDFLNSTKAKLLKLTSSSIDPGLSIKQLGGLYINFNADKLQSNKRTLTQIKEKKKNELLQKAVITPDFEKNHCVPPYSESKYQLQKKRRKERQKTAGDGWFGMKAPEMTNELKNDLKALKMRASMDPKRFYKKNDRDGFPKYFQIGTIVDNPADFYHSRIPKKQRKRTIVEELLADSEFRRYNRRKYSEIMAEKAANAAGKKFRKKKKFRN
UniProt Q5VUG0: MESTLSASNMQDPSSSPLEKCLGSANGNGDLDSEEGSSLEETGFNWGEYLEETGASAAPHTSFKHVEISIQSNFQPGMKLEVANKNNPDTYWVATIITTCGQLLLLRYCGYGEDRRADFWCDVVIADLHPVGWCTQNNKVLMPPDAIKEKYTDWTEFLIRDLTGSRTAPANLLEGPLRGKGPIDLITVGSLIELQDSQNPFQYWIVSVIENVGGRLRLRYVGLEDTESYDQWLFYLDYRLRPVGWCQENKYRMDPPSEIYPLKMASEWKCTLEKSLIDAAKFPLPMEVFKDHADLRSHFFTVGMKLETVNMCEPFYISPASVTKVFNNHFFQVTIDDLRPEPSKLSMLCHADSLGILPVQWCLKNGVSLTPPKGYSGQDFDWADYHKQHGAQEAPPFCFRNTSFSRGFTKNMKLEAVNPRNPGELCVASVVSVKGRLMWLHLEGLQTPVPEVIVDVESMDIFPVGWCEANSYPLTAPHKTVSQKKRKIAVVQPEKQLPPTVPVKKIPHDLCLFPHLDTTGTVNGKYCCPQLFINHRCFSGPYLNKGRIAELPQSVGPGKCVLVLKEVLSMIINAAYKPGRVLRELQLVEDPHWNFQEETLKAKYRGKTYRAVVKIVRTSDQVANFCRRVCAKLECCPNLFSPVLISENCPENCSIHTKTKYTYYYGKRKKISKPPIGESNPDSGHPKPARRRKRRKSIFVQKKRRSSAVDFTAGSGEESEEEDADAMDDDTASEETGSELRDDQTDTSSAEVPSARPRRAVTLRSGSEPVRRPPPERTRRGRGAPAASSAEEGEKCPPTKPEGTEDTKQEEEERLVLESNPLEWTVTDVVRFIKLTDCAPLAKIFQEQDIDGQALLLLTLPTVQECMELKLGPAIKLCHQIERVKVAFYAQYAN
UniProt Q53QV2: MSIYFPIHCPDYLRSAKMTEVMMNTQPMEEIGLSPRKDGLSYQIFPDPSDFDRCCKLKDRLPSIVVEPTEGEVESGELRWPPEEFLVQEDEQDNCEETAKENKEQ

The other results are listed elsewhere or left out. Most entries show no effect beyond the scatter of the controls.

Compound in the assay: CN[C@@H]1C[C@H]2O[C@@](C)([C@@H]1OC)n1c3ccccc3c3c4c(c5c6ccccc6n2c5c31)C(=O)NC4 [staurosporine]
Briefly: log2 fold change of tryptic peptide abundance, ligand vs vehicle (limited proteolysis) (log2 ratio); higher = more trypsin-susceptible (destabilized). As to conditions: ligand concentration: 20 uM; sample: K562 cleared lysate; digestion: 4 min, 22 C (HT-PELSA RT4min, Orbitrap Astral).
Turning to “UniProt Q5J8M3 (peptide sequence: TAQGGLVANR, peptide start residue: 2)”, the log2 fold change was -0.158.
“C6ORF134 (peptide sequence: AAAVDPTPAAPAR, peptide start residue: 209) (UniProt Q5SQI0)”: the log2 fold change is 0.238.
With “UniProt Q5JNZ5 (peptide sequence: PAGAAPRPPPKPM, peptide start residue: 103)”, the log2 fold change is -0.364.
“CPTP (peptide sequence: AVTVAFCTLPTR, peptide start residue: 157) (UniProt Q5TA50)”: the log2 fold change is 0.11.
The result for “FLYWCH1 (peptide sequence: LLVLESFLYKQEK, peptide start residue: 125) (UniProt Q4VC44)” reads 0.268; that for “PARP10 (peptide sequence: WLEEEAALQLALHR, peptide start residue: 649) (UniProt Q53GL7)”, 0.127; that for “UniProt Q53EV4 (peptide sequence: GNMVANLGELAK, peptide start residue: 254)”, -0.0522.
The result for “MRPL2 (peptide sequence: KIRPLPPMK, peptide start residue: 285) (UniProt Q5T653)” reads -0.577; that for “UniProt Q5T280 (peptide sequence: HQDLQFAGLLNPLDSPHHMR, peptide start residue: 163)”, 0.393.
“DOP1A (peptide sequence: TLGWEPGHLLLTICTVR, peptide start residue: 2375) (UniProt Q5JWR5)”: the log2 fold change is -0.328.
Consider “LYPLAL1 (peptide sequence: CIVSPAGR, peptide start residue: 12) (UniProt Q5VWZ2)”, for which the log2 fold change is -0.172.
To “UniProt Q5T1R4 (peptide sequence: SNEEYVYVR, peptide start residue: 2073)” belongs -0.0402; to “UniProt Q5TEJ8 (peptide sequence: IPSTLEVDVEDVTASSR, peptide start residue: 223)”, -0.151.
As to “GNAS (peptide sequence: TISVILFLNKQDLLAEK, peptide start residue: 927) (UniProt Q5JWF2)”, the log2 fold change was 0.326.
For “CT47A1 (peptide sequence: LMVGPHAAAR, peptide start residue: 150) (UniProt Q5JQC4)”, the log2 fold change worked out at 0.0882.
On to “EFCAB2 (peptide sequence: AFEVLDSAK, peptide start residue: 236) (UniProt Q5VUJ9)”, for which the log2 fold change was -0.184.
Take “UniProt Q5VWN6 (peptide sequence: ISEAPFLHPAPR, peptide start residue: 2023)”: the log2 fold change is -0.62.
In the case of “AKIRIN2 (peptide sequence: LTTEQILYNIK, peptide start residue: 76) (UniProt Q53H80)”, the log2 fold change was -0.174.
As for “UBAP2 (peptide sequence: SQQTLDTPK, peptide start residue: 651) (UniProt Q5T6F2)”, the log2 fold change was -0.183.
The result for “CRY2 (peptide sequence: KLEAAEEPPGEELSKR, peptide start residue: 562) (UniProt Q49AN0)” reads 0.471; that for “LDLRAP1 (peptide sequence: KMAQAVTLTVAQAFK, peptide start residue: 152) (UniProt Q5SW96)”, 0.482; that for “UBE2NL (peptide sequence: DKWSPALQIR, peptide start residue: 93) (UniProt Q5JXB2)”, 0.128.
Regarding “UniProt Q4G0M1 (peptide sequence: EFQLLLK, peptide start residue: 135)”, the log2 fold change worked out at 0.508.
The result for “UniProt Q5VYK3 (peptide sequence: FQEFSNIVIPLIKK, peptide start residue: 1651)” reads -0.116; that for “UniProt Q5T440 (peptide sequence: GCYIGQELTAR, peptide start residue: 258)”, 0.056; that for “HERC4 (peptide sequence: FSGVDMNAAR, peptide start residue: 455) (UniProt Q5GLZ8)”, 0.334.
To “UniProt Q5H9R7 (peptide sequence: ETLSLTVDAK, peptide start residue: 800)” belongs -0.195; to “C4orf46 (peptide sequence: EGYDSLKPDD, peptide start residue: 104) (UniProt Q504U0)”, 0.148; to “BCL7A (peptide sequence: WVPVTEPK, peptide start residue: 48) (UniProt Q4VC05)”, 0.182.
“RC3H1 (peptide sequence: CVEELALYLKPLSSAR, peptide start residue: 102) (UniProt Q5TC82)”: the log2 fold change was -0.25.
“DNTTIP2 (peptide sequence: QTSHLQAR, peptide start residue: 243) (UniProt Q5QJE6)”: the log2 fold change worked out at 0.432.
In the case of “CC2D1B (peptide sequence: SQDLEQAK, peptide start residue: 557) (UniProt Q5T0F9)”, the log2 fold change is -0.165.
As to “MINDY4 (peptide sequence: TSLELITR, peptide start residue: 69) (UniProt Q4G0A6)”, the log2 fold change amounted to 0.263.
As for “UniProt Q5FWF4 (peptide sequence: QRIPFDLPSAAAK, peptide start residue: 271)”, the log2 fold change was 0.223.
For “UniProt Q5FWF6 (peptide sequence: ISVVMQESAEK, peptide start residue: 114)”, the log2 fold change was -0.395.
“UniProt Q5VUG0 (peptide sequence: LTDCAPLAK, peptide start residue: 835)”: the log2 fold change worked out at 0.0757.
Regarding “LBH (peptide sequence: KDGLSYQIFPDPSDFDRCCK, peptide start residue: 37) (UniProt Q53QV2)”, the log2 fold change is -0.711.
